This passage reports binding results from PMC10759362.

The assay addresses T1, Phosphoglycerate kinase 1 (PGK1) (human) (UniProt P00558).
T1 sequence: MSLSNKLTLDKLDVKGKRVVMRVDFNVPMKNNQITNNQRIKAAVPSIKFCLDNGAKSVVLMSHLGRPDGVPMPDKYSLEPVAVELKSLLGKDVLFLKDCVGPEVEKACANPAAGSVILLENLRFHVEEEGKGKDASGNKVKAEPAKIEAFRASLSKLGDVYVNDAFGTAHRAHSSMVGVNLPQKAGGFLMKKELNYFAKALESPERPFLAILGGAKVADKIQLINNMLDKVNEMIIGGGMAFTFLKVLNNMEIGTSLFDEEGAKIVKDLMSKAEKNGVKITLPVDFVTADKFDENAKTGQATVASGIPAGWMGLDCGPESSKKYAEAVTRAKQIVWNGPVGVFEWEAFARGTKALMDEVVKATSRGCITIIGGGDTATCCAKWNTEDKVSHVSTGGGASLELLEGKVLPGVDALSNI
The experiment in a line: co-IP; Classic IP/Co-IP kit (Pierce); cells with indicated treatment (OGT shRNA or pENTER-OGT) lysed in IP lysis buffer, supernatants incubated with the appropriate antibodies, protein A/G-agarose beads, SDS-PAGE and Western blotting.

These are yes or no findings as the source states them, for the method shown. Binding seen in cells or lysates may run through a third protein. Some entries that bind do so weakly or less than the wild type.

B1: O-GlcNAc transferase (OGT) (enzyme, UniProt O15294 1-1046)
chain: MASSVGNVADSTEPTKRMLSFQGLAELAHREYQAGDFEAAERHCMQLWRQEPDNTGVLLLLSSIHFQCRRLDRSAHFSTLAIKQNPLLAEAYSNLGNVYKERGQLQEAIEHYRHALRLKPDFIDGYINLAAALVAAGDMEGAVQAYVSALQYNPDLYCVRSDLGNLLKALGRLEEAKACYLKAIETQPNFAVAWSNLGCVFNAQGEIWLAIHHFEKAVTLDPNFLDAYINLGNVLKEARIFDRAVAAYLRALSLSPNHAVVHGNLACVYYEQGLIDLAIDTYRRAIELQPHFPDAYCNLANALKEKGSVAEAEDCYNTALRLCPTHADSLNNLANIKREQGNIEEAVRLYRKALEVFPEFAAAHSNLASVLQQQGKLQEALMHYKEAIRISPTFADAYSNMGNTLKEMQDVQGALQCYTRAIQINPAFADAHSNLASIHKDSGNIPEAIASYRTALKLKPDFPDAYCNLAHCLQIVCDWTDYDERMKKLVSIVADQLEKNRLPSVHPHHSMLYPLSHGFRKAIAERHGNLCLDKINVLHKPPYEHPKDLKLSDGRLRVGYVSSDFGNHPTSHLMQSIPGMHNPDKFEVFCYALSPDDGTNFRVKVMAEANHFIDLSQIPCNGKAADRIHQDGIHILVNMNGYTKGARNELFALRPAPIQAMWLGYPGTSGALFMDYIITDQETSPAEVAEQYSEKLAYMPHTFFIGDHANMFPHLKKKAVIDFKSNGHIYDNRIVLNGIDLKAFLDSLPDVKIVKMKCPDGGDNADSSNTALNMPVIPMNTIAEAVIEMINRGQIQITINGFSISNGLATTQINNKAATGEEVPRTIIVTTRSQYGLPEDAIVYCNFNQLYKIDPSTLQMWANILKRVPNSVLWLLRFPAVGEPNIQQYAQNMGLPQNRIIFSPVAPKEEHVRRGQLADVCLDTPLCNGHTTGMDVLWAGTPMVTMPGETLASRVAASQLTCLGCLELIAKNRQEYEDIAVKLGTDLEYLKKVRGKVWKQRISSPLFNTKQYTMELERLYLQMWEHYAAGNKPDHMIKPVEVTESA
With B1, the binding result is reported as “binds”.
